# The other results are listed elsewhere or left out.
# Chains of the proteins cited; added tags and fusions are not shown. Lines headed by an entry give the natural chain unless they say otherwise; changes in a name come on top.
# UniProt Q96PV6, whole entry, looked up: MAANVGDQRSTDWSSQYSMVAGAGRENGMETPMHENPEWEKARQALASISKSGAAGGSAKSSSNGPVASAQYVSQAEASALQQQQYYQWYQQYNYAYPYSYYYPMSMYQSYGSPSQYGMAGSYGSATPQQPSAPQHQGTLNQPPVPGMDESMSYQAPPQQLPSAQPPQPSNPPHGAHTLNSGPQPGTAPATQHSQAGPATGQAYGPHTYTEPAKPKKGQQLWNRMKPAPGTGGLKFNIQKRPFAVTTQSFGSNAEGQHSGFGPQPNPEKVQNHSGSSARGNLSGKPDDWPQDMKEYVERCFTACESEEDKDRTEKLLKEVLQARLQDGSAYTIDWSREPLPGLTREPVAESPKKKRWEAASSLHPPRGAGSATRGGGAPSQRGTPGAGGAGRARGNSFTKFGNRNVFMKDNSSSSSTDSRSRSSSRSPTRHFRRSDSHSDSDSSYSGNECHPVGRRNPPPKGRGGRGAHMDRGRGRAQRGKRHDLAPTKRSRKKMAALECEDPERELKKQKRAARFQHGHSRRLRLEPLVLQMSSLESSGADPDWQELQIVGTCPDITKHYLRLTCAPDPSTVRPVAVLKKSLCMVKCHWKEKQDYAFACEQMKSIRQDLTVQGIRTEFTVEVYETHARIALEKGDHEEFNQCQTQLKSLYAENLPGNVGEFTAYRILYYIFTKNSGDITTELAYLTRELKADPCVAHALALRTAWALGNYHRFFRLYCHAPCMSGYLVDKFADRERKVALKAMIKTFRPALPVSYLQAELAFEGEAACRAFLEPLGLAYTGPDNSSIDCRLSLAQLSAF
# UniProt Q53H82: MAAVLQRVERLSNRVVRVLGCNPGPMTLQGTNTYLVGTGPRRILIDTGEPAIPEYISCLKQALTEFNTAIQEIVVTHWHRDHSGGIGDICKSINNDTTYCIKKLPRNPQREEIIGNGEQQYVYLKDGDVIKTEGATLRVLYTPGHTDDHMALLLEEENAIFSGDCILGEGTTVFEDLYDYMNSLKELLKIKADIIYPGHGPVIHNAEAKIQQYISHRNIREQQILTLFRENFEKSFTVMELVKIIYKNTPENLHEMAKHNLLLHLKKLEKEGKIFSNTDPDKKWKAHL
# UniProt P13473: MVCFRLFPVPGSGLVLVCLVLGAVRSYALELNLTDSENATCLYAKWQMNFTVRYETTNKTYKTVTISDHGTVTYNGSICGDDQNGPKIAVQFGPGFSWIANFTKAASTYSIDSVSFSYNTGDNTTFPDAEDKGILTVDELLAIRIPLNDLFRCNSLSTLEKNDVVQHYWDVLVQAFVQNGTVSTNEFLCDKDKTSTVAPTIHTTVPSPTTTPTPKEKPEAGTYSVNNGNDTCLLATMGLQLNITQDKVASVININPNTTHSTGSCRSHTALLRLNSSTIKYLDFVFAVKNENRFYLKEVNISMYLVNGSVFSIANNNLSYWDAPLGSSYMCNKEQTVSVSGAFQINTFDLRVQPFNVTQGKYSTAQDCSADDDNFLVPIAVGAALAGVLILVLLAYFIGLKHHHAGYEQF
# UniProt Q14974, whole entry, looked up: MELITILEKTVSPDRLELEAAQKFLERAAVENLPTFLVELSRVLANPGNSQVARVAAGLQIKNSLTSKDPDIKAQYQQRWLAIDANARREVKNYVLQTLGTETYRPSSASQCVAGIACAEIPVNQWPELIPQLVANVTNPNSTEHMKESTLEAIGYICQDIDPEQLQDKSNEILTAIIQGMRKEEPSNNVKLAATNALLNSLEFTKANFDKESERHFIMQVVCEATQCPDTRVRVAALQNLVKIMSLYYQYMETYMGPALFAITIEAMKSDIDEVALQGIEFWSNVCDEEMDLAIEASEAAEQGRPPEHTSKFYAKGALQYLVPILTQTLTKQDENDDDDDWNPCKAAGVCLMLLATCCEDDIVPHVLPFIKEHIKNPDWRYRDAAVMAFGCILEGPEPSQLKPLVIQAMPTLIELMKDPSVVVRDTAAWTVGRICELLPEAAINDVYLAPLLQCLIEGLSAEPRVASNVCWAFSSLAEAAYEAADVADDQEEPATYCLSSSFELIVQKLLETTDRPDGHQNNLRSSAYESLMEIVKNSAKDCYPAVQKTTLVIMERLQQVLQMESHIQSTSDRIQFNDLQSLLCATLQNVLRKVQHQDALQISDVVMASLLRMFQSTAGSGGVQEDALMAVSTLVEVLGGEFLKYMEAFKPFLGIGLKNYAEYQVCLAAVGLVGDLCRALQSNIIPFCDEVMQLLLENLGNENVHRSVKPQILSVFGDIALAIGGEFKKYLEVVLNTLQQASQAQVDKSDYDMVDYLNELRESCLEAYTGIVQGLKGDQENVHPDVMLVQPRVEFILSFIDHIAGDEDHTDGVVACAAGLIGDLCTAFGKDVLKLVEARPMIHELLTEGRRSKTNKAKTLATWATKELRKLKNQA
# UniProt Q4G0J3: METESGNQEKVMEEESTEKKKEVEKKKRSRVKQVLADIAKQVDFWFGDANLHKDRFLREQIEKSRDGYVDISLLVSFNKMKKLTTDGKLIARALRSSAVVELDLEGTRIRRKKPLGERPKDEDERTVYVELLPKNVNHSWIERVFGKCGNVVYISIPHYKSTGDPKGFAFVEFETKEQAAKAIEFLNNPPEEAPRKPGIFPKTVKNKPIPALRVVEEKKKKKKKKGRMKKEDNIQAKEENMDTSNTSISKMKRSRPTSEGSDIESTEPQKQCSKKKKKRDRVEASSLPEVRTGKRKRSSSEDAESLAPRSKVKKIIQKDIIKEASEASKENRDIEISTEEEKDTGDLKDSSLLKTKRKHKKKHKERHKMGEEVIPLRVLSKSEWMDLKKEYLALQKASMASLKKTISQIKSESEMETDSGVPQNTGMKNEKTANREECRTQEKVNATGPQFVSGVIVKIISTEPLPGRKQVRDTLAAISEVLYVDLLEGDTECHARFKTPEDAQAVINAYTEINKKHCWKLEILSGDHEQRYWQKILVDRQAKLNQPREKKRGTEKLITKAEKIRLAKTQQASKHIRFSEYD
# UniProt P01130: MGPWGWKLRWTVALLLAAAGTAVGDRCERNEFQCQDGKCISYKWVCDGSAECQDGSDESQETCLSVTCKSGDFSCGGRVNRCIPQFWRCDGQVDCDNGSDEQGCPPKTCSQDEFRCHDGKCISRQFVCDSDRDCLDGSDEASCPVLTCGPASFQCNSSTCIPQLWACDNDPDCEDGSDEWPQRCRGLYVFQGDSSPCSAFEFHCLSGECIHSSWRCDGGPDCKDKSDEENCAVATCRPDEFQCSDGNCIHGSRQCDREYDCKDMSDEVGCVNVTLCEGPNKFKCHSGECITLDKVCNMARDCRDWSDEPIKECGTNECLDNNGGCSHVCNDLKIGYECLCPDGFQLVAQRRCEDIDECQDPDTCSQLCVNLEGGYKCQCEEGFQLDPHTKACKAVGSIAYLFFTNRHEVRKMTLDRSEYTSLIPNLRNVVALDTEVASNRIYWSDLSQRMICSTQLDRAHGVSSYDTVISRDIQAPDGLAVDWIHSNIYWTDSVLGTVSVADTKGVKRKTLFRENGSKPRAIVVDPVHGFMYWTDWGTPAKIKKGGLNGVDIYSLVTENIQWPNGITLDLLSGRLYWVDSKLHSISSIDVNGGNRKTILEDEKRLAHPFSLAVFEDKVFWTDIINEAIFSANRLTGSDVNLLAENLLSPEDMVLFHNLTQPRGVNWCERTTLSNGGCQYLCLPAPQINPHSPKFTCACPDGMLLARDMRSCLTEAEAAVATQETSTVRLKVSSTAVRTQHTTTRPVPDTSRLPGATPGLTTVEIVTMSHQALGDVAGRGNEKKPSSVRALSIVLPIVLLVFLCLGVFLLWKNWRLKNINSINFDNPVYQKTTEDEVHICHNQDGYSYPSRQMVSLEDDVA
# UniProt Q71RC2, whole entry, looked up: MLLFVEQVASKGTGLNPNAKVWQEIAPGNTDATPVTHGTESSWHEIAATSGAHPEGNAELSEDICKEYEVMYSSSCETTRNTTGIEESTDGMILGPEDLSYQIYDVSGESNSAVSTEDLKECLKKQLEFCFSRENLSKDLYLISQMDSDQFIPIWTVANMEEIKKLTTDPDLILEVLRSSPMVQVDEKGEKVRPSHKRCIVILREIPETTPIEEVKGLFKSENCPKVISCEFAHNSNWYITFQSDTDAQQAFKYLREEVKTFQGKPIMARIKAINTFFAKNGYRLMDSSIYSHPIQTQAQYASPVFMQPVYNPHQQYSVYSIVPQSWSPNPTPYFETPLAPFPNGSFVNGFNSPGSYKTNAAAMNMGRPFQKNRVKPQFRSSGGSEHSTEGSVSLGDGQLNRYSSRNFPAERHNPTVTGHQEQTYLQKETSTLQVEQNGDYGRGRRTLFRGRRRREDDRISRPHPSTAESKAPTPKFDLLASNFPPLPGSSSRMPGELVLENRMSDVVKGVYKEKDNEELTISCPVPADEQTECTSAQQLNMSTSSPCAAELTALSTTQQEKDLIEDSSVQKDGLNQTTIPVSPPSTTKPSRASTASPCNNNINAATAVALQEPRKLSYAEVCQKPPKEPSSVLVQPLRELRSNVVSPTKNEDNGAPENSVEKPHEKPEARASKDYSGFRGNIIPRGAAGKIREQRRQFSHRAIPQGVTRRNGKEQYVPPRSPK
# UniProt Q96EM0: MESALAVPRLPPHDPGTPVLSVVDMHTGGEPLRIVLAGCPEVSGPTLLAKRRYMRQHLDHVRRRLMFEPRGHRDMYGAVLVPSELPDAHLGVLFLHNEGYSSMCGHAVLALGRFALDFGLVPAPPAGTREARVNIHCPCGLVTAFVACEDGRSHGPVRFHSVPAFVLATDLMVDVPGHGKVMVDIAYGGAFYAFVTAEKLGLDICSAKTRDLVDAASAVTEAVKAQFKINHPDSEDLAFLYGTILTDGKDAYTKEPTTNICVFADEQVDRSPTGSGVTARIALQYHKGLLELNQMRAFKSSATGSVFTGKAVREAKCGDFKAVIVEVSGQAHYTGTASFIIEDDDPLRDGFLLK
# UniProt Q9H9P8: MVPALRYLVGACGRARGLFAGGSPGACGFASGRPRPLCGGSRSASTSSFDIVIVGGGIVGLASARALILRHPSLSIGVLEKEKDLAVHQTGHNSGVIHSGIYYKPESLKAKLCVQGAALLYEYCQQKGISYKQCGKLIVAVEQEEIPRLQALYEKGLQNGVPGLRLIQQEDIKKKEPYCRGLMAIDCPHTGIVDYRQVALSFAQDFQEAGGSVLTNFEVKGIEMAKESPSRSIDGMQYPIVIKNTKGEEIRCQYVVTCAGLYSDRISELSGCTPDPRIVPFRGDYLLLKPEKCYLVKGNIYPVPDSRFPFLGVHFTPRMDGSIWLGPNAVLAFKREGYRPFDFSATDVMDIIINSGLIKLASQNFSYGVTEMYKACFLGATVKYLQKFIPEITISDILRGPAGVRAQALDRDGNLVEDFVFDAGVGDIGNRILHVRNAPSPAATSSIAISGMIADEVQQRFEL
# UniProt Q9P2J5: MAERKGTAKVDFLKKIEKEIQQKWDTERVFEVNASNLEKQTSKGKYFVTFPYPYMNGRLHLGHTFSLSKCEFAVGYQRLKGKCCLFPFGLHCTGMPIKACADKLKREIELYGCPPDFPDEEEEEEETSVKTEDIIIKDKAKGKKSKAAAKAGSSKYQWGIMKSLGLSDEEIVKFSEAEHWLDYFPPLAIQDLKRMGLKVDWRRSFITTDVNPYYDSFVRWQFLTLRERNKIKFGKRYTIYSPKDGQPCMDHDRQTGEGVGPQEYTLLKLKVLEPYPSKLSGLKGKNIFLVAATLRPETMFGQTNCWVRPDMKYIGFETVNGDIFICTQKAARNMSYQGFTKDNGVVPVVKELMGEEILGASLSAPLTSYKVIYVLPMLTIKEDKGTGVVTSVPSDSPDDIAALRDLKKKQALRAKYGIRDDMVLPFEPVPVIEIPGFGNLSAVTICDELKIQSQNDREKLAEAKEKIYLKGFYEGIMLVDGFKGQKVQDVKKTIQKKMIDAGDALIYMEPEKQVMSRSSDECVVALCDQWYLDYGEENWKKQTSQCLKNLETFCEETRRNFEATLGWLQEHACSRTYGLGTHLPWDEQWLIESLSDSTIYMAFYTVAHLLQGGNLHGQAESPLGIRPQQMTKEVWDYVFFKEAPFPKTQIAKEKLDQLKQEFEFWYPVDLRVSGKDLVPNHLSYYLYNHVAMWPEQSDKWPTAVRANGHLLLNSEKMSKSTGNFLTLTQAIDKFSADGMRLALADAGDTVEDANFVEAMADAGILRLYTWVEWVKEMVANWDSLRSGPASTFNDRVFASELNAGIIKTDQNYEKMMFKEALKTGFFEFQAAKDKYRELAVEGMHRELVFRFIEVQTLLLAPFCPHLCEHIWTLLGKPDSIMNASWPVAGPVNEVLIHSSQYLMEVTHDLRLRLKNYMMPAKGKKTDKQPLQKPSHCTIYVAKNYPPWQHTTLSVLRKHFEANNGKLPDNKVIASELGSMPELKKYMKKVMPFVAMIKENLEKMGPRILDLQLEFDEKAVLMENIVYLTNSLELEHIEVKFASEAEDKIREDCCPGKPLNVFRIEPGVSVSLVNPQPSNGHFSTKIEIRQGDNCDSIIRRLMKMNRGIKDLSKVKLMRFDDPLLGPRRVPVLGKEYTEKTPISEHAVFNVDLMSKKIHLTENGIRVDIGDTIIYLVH
# Compound: Cc1cc(ccc1-c1ccccc1)C(=O)N1CCCN(CC1)C(=O)CCl [compound 10]
# Assay: probe-labelled cysteine peptide fold change vs DMSO (competition) (log2 fold change); higher = less target engagement (more negative = stronger competition)
# Conditions: THP-1, incubation time: 4 h
# 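Further: competitive profiling in live THP-1 cells: cysteine peptides tagged with an iodoacetamide desthiobiotin (IA-DTB) probe, intensity after compound treatment relative to DMSO-treated cells.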
Target,probe-labelled cysteine peptide fold change (10 µM),probe-labelled cysteine peptide fold change (50 µM)
LENG8_Q96PV6_500_MAALECEDPER (UniProt Q96PV6),-0.193,-0.0815
LACTB2_Q53H82_21_VLGCNPGPMTLQGTNTYLVGTGPR (UniProt Q53H82),-0.09,-0.141
LAMP2_P13473_153_CNSLSTLEK (UniProt P13473),-0.124,-0.0914
KPNB1_Q14974_223_HFIMQVVCEATQCPDTR (UniProt Q14974),-0.0415,0.0124
LANCL1_O43813_108_SITFLCGDAGPLAVAAVLYHK (UniProt O43813),-0.0705,0.01
LARP7_Q4G0J3_493_DTLAAISEVLYVDLLEGDTECHAR (UniProt Q4G0J3),0.181,0.099
LARP7_Q4G0J3_438_TANREECR (UniProt Q4G0J3),0.0898,-0.0816
KTI12_Q96EK9_107_TPLCLVYCVRPGGPIAGPQVAGANENPGR (UniProt Q96EK9),-0.0222,-0.161
KLHL26_Q53HC5_480_ALHCYDPVADQWEFK (UniProt Q53HC5),-0.144,-0.21
LDLR_P01130_377+379_CQCEEGFQLDPHTK (UniProt P01130),-0.198,0.243
LARP4_Q71RC2_599_ASTASPCNNNINAATAVALQEPR (UniProt Q71RC2),-0.38,-0.0447
LEMD2_Q8NC56_253_LLPVDCER (UniProt Q8NC56),-0.171,0.185
L3HYPDH_Q96EM0_39_IVLAGCPEVSGPTLLAK (UniProt Q96EM0),-0.0329,0.075
L2HGDH_Q9H9P8_272_ISELSGCTPDPR (UniProt Q9H9P8),-0.165,-0.0744
LARS_Q9P2J5_84_CCLFPFGLHCTGMPIK (UniProt Q9P2J5),-0.0226,-0.198

# — the supplement of paper PMC12067093, “Discovery and optimisation of a covalent ligand for TRIM25 and its application to targeted protein ubiquitination” (Chemical Science, 2025)
